# PubChem BioAssay AID1053208, Peter MacCallum Cancer Centre – 2014
# Assay: 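Find knock-downs that sensitise mouse osteosarcoma cells to doxorubicin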 (primary screen)
# System: mouse osteosarcoma cells, early-passage culture from an engineered mouse model of fibroblastic bone tumour
# Knock-down reagent: siRNA pool against mouse genes, 40 nM
# Time to read-out: about 120 h (48 h before drug, then 72 h with drug)
# Conditions: doxorubicin 100 nM for 72 h, roughly 30-40% inhibitory dose
# Read-out: 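Luminescent ATP signal taken as viability with or without 100 nM doxorubicin for 72 h; mean of two wells set against non-targeting siRNA and turned into robust z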
# Scale: viability z-score with doxorubicin and doxorubicin viability vs non-targeting: higher = more viable cells under doxorubicin; viability z-score without drug: higher = more viable cells with knock-down alone; z-score of drug to no-drug ratio: higher = less drug sensitisation by knock-down
# Hit rule: 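a pool counts as active when its viability z-score with doxorubicin is -2 or below and its z-score without drug lies between -2 and 2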
# This is an unselected part of about 17,000 reagents. 788 of them (4.7%) count as active. 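Calls rest on z-score classes alone; an extra cut-off of viability at most 70% of control was not applied to them.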 No sequences are given here.
gene symbol,combined z-score class,viability z-score with doxorubicin,viability z-score without drug,z-score of drug to no-drug ratio,doxorubicin viability vs non-targeting,activity call
Ccz1,no change with or without drug,-1.69,0.17,-1.8,0.79,inactive
Gnb2,no change with or without drug,0.34,-0.17,0.56,0.97,inactive
Or7g30,no change with or without drug,-0.67,0.17,-0.67,0.88,inactive
Zfp628,no change with or without drug,0.79,0.84,0.34,1.01,inactive
Mnd1,no change with or without drug,-0.9,-1.18,0,0.86,inactive
Fmo3,no change with or without drug,0.67,0.17,0.67,1,inactive
Tcte2,no change with or without drug,-0.45,-0.17,-0.22,0.9,inactive
Ctsh,no change with or without drug,-0.56,-0.84,0.11,0.89,inactive
Cant1,no change with or without drug,-0.56,-1.52,0.56,0.89,inactive
Spatc1l,no change with or without drug,-0.56,-0.17,-0.34,0.89,inactive
Defb20,no change with or without drug,0.67,0.17,0.67,1,inactive
Pcdhb14,low cell count with and without drug,-2.81,-2.19,-1.57,0.69,inactive
Wt1,no change with or without drug,-0.34,0,-0.22,0.91,inactive
Smurf2,no change with or without drug,0,0.17,0,0.94,inactive
Pnma3,high cell count without drug only,1.8,2.19,0.45,1.1,inactive
Cysltr2,no change with or without drug,-0.34,1.01,-0.9,0.91,inactive
Cbx3,no change with or without drug,-0.45,0.34,-0.56,0.9,inactive

Next part, starting with the last 5 of the part before.
gene symbol,combined z-score class,viability z-score with doxorubicin,viability z-score without drug,z-score of drug to no-drug ratio,doxorubicin viability vs non-targeting,activity call
Wt1,no change with or without drug,-0.34,0,-0.22,0.91,inactive
Smurf2,no change with or without drug,0,0.17,0,0.94,inactive
Pnma3,high cell count without drug only,1.8,2.19,0.45,1.1,inactive
Cysltr2,no change with or without drug,-0.34,1.01,-0.9,0.91,inactive
Cbx3,no change with or without drug,-0.45,0.34,-0.56,0.9,inactive
Mvd,no change with or without drug,-0.67,-1.01,0.11,0.88,inactive
Tmprss11e,no change with or without drug,-0.22,0.17,-0.22,0.92,inactive
Adhfe1,no change with or without drug,-0.45,-1.18,0.45,0.9,inactive
Spag16,no change with or without drug,-0.67,0.51,-0.9,0.88,inactive
Jup,no change with or without drug,-1.35,-1.85,0,0.82,inactive
Gchfr,low cell count with doxorubicin only,-2.25,1.69,-3.15,0.74,active
Slc25a4,no change with or without drug,-0.56,-1.35,0.45,0.89,inactive
4930474N05Rik,high cell count without drug only,0,2.19,-1.24,0.94,inactive
Pfdn4,high cell count with doxorubicin only,2.02,0.51,1.8,1.12,inactive
Cic,high cell count without drug only,1.8,2.87,0,1.1,inactive
Ralbp1,no change with or without drug,1.46,0.84,1.01,1.07,inactive
Hcar2,no change with or without drug,0.45,0,0.56,0.98,inactive
Or6f2,no change with or without drug,-0.22,0.34,-0.34,0.92,inactive
Frmpd3,no change with or without drug,-1.91,-0.17,-1.8,0.77,inactive
Mtss2,low cell count with doxorubicin only,-2.02,0.17,-2.14,0.76,active
Lrp4,no change with or without drug,0.45,-0.84,1.24,0.98,inactive
Iqsec1,no change with or without drug,0.11,1.52,-0.79,0.95,inactive
Pbld2,no change with or without drug,1.57,0.17,1.69,1.08,inactive
Or4d6,no change with or without drug,-1.12,-0.84,-0.56,0.84,inactive
Ubxn2a,no change with or without drug,0.9,-0.17,1.24,1.02,inactive
Rnf187,no change with or without drug,1.12,0.84,0.67,1.04,inactive
Tmem88,no change with or without drug,0.45,0.51,0.22,0.98,inactive
Igflr1,no change with or without drug,-0.22,-0.84,0.45,0.92,inactive
Ing2,no change with or without drug,-0.67,-0.51,-0.22,0.88,inactive
Smad4,no change with or without drug,0.22,0.84,-0.22,0.96,inactive
Pitx3,no change with or without drug,-0.9,-0.17,-0.79,0.86,inactive
Odf2,no change with or without drug,0.22,0.84,-0.22,0.96,inactive
Abhd16b,no change with or without drug,-1.12,-0.51,-0.79,0.84,inactive
Cd44,no change with or without drug,0.67,-1.01,1.57,1,inactive
A830018L16Rik,no change with or without drug,0.11,0.67,-0.22,0.95,inactive
Lca5,high cell count without drug only,0.45,3.2,-1.35,0.98,inactive
Acot12,no change with or without drug,0.11,0.84,-0.34,0.95,inactive
Tfb1m,no change with or without drug,-0.45,-1.18,0.45,0.9,inactive
